Reference: patent publication US20150259687A1
No constants are given. Whether binding was seen depends on the method and setting. In cells and extracts the contact can be indirect. Some results given as binding are weak or reduced against the parent protein; the word gives no strength.

The chains behind the UniProt entries cited, without tags or fusion partners. Residues count along the entry.
UniProt Q04206, residues 1-313: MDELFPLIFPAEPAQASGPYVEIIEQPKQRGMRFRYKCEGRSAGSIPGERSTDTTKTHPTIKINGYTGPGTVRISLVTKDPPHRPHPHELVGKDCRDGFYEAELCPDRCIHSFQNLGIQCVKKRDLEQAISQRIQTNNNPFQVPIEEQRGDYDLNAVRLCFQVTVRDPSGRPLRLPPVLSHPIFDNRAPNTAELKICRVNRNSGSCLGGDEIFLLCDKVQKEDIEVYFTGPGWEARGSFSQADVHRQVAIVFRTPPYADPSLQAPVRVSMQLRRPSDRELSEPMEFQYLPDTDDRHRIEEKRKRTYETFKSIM
UniProt P25963: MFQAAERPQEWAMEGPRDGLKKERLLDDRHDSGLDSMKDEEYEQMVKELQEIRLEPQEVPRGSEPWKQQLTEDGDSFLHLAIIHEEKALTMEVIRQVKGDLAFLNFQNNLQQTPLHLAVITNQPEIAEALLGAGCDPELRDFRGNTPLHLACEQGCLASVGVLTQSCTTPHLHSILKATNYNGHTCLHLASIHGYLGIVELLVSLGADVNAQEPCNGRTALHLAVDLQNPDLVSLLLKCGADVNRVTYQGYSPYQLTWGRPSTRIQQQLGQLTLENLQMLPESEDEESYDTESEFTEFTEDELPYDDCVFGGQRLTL

What was measured:
[1] = biological target: GST-RelA (1-313) fusion protein (human) (UniProt Q04206); test: nondenaturing coimmunoprecipitation with anti-RelA Ab, immunoblot with anti-IκBα (legend of FIG. 5A)
[2] = biological target: GST-RelA (1-313) fusion protein (human) (UniProt Q04206); test: nondenaturing coimmunoprecipitation with anti-RelA Ab, Western immunoblot with anti-IκBα
[3] = biological target: GST-RelA (1-313) fusion protein (human) (UniProt Q04206); test: nondenaturing coimmunoprecipitation of purified recombinant proteins with anti-RelA Ab, immunoblot with anti-IκBα

binding [1]: binds
binding [2]: binds
binding [3]: binds
Substance: recombinant full length GST-IκBα (from UniProt P25963 1-317)
